Measured values from article PMC3591300.
These are yes or no findings as the source states them, for the method shown. In cells and extracts the contact can be indirect. Some binding calls cover weakened binding; strength is not graded here.

Protein sequences, listed by entry. Tags and fused reporters are not part of them. Lines headed by an entry give the natural chain unless they say otherwise; changes in a name come on top. Chains listed by the source or under a name are the forms on record and can include a tag or linker.
UniProt A1ZA47: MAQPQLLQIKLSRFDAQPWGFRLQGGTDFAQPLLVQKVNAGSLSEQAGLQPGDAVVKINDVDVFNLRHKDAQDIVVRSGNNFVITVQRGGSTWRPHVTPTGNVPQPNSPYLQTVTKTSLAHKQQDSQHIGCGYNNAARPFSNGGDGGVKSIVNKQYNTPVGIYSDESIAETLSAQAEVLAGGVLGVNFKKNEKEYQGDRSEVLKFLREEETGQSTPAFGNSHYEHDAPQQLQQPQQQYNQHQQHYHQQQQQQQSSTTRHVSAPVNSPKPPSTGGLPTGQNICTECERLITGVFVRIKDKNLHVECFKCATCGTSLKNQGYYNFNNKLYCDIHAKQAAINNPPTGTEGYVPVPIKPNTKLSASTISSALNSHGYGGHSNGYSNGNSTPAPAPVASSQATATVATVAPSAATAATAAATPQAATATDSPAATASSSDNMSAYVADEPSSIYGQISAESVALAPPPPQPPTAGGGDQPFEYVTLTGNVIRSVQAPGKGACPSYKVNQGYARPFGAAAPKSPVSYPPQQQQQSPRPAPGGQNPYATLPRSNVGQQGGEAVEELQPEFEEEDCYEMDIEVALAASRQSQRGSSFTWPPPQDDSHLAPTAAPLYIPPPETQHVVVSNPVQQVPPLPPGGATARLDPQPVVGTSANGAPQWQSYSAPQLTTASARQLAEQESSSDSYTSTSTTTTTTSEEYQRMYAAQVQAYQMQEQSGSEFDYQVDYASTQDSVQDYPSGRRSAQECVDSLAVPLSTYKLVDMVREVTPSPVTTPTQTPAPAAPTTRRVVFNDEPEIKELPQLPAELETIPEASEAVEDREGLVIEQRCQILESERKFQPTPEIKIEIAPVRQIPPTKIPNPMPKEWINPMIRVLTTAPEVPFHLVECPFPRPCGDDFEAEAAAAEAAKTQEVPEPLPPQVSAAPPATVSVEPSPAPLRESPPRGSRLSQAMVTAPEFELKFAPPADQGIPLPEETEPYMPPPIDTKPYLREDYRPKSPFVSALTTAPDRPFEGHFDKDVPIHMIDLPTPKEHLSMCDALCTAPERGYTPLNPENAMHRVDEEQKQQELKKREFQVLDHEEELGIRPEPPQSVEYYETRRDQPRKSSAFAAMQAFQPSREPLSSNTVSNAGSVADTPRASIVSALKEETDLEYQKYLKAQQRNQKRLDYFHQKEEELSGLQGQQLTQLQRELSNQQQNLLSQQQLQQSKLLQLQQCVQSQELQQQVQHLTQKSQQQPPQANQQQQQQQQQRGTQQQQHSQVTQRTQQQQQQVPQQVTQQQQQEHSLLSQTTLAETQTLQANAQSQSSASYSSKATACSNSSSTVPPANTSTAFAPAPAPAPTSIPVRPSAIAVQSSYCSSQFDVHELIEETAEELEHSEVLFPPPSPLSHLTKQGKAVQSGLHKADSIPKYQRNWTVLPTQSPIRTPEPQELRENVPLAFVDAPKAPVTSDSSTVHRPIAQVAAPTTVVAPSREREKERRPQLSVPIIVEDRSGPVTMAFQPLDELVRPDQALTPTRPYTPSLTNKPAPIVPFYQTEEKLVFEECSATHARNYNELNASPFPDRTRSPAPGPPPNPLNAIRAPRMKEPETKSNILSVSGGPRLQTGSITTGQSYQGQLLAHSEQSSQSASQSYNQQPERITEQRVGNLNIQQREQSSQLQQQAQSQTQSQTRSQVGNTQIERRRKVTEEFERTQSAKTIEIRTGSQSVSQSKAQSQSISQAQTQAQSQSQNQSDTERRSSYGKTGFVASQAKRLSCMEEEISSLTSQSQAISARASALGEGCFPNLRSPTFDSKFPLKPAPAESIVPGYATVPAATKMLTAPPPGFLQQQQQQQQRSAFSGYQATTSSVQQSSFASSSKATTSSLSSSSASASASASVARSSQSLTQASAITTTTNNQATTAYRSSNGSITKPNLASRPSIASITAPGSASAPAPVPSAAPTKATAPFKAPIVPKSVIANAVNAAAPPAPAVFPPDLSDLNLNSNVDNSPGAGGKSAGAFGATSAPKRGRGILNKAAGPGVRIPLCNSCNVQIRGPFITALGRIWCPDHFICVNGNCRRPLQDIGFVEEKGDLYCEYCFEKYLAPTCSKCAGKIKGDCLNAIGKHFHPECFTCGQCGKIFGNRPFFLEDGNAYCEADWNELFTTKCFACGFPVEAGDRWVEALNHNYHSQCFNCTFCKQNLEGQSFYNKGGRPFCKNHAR
α-actinin (endogenous, Drosophila) (P18091, form named): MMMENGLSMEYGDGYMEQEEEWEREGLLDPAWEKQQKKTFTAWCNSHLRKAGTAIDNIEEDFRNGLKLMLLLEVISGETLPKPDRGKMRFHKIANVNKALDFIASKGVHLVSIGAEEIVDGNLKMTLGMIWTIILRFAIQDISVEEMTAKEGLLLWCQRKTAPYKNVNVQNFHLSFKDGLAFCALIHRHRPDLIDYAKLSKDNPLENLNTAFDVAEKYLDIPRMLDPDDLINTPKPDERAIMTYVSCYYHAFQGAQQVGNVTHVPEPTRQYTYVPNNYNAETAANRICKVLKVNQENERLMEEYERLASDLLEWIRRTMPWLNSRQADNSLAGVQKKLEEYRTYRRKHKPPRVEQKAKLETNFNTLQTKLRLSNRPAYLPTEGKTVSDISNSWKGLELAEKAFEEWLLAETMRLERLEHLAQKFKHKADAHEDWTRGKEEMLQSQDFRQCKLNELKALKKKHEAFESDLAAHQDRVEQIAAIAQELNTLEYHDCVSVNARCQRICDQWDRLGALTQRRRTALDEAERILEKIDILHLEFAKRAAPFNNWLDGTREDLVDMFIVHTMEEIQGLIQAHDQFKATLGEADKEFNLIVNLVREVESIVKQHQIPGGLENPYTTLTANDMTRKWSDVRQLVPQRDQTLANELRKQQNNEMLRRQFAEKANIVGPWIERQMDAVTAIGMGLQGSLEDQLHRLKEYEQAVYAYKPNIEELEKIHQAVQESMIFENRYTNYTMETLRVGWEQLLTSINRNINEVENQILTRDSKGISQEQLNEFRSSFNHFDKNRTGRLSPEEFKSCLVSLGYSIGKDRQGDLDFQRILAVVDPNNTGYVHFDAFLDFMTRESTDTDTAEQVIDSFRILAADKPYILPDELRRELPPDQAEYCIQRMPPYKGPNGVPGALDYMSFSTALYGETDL

Target: GFP-Zasp52 (endogenous GFP fusion, line G00189) (Drosophila melanogaster (endogenous in adult fly thoraces)) (UniProt A1ZA47)
Test: co-IP; extracts of 50 adult fly thoraces in 25 mM Tris-HCl pH 8, 150 mM NaCl, 1 mM EDTA, 0.5% TritonX-100, 5% glycerol; GFP-Trap-M anti-GFP beads, 2 h at 4°C; immunoblot

- binding: binds
Substance: α-actinin (endogenous, Drosophila) (from UniProt P18091 1-917)
